Reference: PubChem BioAssay AID1259254 (NCATS, 2017)

Assay: 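Finding genes that stop cells copying their DNA twice in one cycle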 (primary screen)
Cells: human HCT116 colorectal cancer cells
Reagent: single siRNA against human genes
Timing: 3 days
Detection: 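Nuclei stained with Hoechst and imaged; cell-cycle phase assigned by DNA content; G2 share scaled per plate, non-targeting siRNA 0%, GMNN siRNA 100%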
Scale: G2 robust z-score and G2 cells, % of GMNN control: higher = more G2 cells, more excess DNA replication
Active means: 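An siRNA counts as active if its G2 robust z-score lies at least 5 MADs above the screen median; here such calls match roughly 38% of GMNN control or more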
The deposit covers about 59,000 reagents; below is a part drawn at random. Of all reagents, about 1,550 (2.6%) were called active. 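G2 share is only a proxy for re-replication; each gene was hit by three separate siRNAs, and active genes were retested.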 Unmarked entries are inactive. The numbers tell different reagents against one gene apart. Not all columns of the deposit are shown. No sequences are given here. The record does not give: the amount of reagent.

| gene symbol | siRNA no. | G2 robust z-score | G2 cells, % of GMNN control |
| --- | --- | --- | --- |
| RPL12P2 | 1 | 0.679 | 7.75 |
| RPL12P2 | 2 | 1.14 | 11 |
| RPL12P2 | 3 | 1.11 | 10.8 |
| GADD45GIP1 | 1 | -0.784 | -2.55 |
| GADD45GIP1 | 2 | -0.86 | -3.08 |
| GADD45GIP1 | 3 | 2.1 | 17.8 |
| LOC646388 | 1 | -0.589 | -1.18 |
| LOC646388 | 2 | 0.0603 | 3.39 |
| LOC646388 | 3 | 1.43 | 13 |
| SOCS6 | 1 | -0.822 | -2.81 |
| SOCS6 | 2 | -0.554 | -0.93 |
| SOCS6 | 3 | -0.341 | 0.568 |
| C11orf24 | 1 | 0.0886 | 3.59 |
| C11orf24 | 2 | 0.483 | 6.37 |
| C11orf24 | 3 | -0.308 | 0.802 |
| HERC2P3 | 1 | -0.0802 | 2.4 |
| HERC2P3 | 2 | 0.396 | 5.75 |
| HERC2P3 | 3 | -0.365 | 0.402 |
| SLC8B1 | 1 | -0.104 | 2.23 |
| SLC8B1 | 2 | -0.704 | -1.99 |
| SLC8B1 | 3 | -1.32 | -6.29 |
| SIM2 | 1 | -0.891 | -3.3 |
| SIM2 | 2 | -1.54 | -7.86 |
| SIM2 | 3 | -0.486 | -0.452 |
| MEIOB | 1 | -0.702 | -1.97 |
| MEIOB | 2 | 2.76 | 22.4 |
| MEIOB | 3 | -0.785 | -2.55 |
| PRAMEF10 | 1 | -0.112 | 2.18 |
| PRAMEF10 | 2 | 6.25 (active) | 46.9 |
| PRAMEF10 | 3 | -0.565 | -1.01 |
| SNRPD2 | 1 | 3.26 | 25.9 |
| SNRPD2 | 2 | 2.09 | 17.7 |
| SNRPD2 | 3 | 0.808 | 8.66 |
| SMARCD3 | 1 | -1.96 | -10.8 |
| SMARCD3 | 2 | -1.49 | -7.5 |
| SMARCD3 | 3 | 1.29 | 12 |
| CCDC107 | 1 | 0.612 | 7.27 |
| CCDC107 | 2 | -0.494 | -0.505 |
| CCDC107 | 3 | -0.452 | -0.212 |
| TBCCD1 | 1 | 2.12 | 17.9 |
| TBCCD1 | 2 | -0.818 | -2.79 |
| TBCCD1 | 3 | -0.884 | -3.26 |
| ZFTRAF1 | 1 | 0.139 | 3.95 |
| ZFTRAF1 | 2 | 2.34 | 19.4 |
| ZFTRAF1 | 3 | -1.34 | -6.43 |
| FAM47A | 1 | -0.772 | -2.46 |
| FAM47A | 2 | 1.01 | 10.1 |
| FAM47A | 3 | 1.5 | 13.5 |
| FAM186A | 1 | -0.436 | -0.097 |
| FAM186A | 2 | -1.12 | -4.9 |
| FAM186A | 3 | -0.615 | -1.36 |
| TM4SF1 | 1 | -0.337 | 0.595 |
| TM4SF1 | 2 | -0.325 | 0.684 |
| TM4SF1 | 3 | 0.238 | 4.64 |
| NANOS1 | 1 | 1.51 | 13.6 |
| NANOS1 | 2 | 2.51 | 20.6 |
| NANOS1 | 3 | -0.692 | -1.9 |
| BCAM | 1 | -1.14 | -5.09 |
| BCAM | 2 | 1.43 | 13 |
| BCAM | 3 | -0.148 | 1.93 |
| PROC | 1 | -0.493 | -0.499 |
| PROC | 2 | 0.016 | 3.08 |
| PROC | 3 | -0.478 | -0.398 |
| TNFAIP3 | 1 | 3.87 | 30.2 |
| TNFAIP3 | 2 | 3.84 | 30 |
| TNFAIP3 | 3 | 0.288 | 4.99 |
| PLA2G4A | 1 | 0.722 | 8.05 |
| PLA2G4A | 2 | -0.944 | -3.68 |
| PLA2G4A | 3 | 0.706 | 7.94 |

Part of the list above, limited to “G2 robust z-score”.
SOCS6 #1 = -0.822
SOCS6 #2 = -0.554
SOCS6 #3 = -0.341
C11orf24 #1 = 0.0886
C11orf24 #2 = 0.483
C11orf24 #3 = -0.308
HERC2P3 #1 = -0.0802
HERC2P3 #2 = 0.396
HERC2P3 #3 = -0.365
SLC8B1 #1 = -0.104
SLC8B1 #2 = -0.704
